Data as given in PubChem BioAssay AID743454 (Peter MacCallum Cancer Centre, 2014)
Here is an unselected part of about 18,000 reagents. In the full data, 450 (2.5%) were called active. 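Single biological run; no consistent viability z cut-off exists, so the class columns, not z-scores, define the calls.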 Unmarked entries are inactive.

Test: 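Genes whose loss kills vorinostat-resistant colon cancer cells under vorinostat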 (primary screen)
Cell system: human HCT116-VR colon cancer cells, selected for vorinostat resistance
Reagents: siRNA pool against human genes, 40 nM siRNA pool
Duration: vorinostat for 24 h, read-out about 72 h after transfection
Conditions: vorinostat at 2.5 µM final
Read-out: 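Cell viability by CellTiter-Fluor and caspase 3/7 activity by luminescence, each scaled to mock wells per plate, duplicates averaged, then robust z-scored over all plates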
Scale: viability robust z-score: higher = more viable cells than screen typical; caspase robust z-score: higher = more caspase 3/7 activity than screen typical
Call rule: 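a knock-down is a hit when classed RV1 or RV2 for lowered viability, or CA1 or CA2 for caspase activation; those lethal without drug were dropped; hits were retested singly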

| gene symbol | viability hit class | caspase hit class | viability robust z-score | caspase robust z-score |
| --- | --- | --- | --- | --- |
| LXN | no change | no change | -1.35 | -0.14 |
| KMT2D | no change | no change | -3.83 | -0.32 |
| CXorf65 | no change | no change | 0.66 | 0.56 |
| TNFRSF19 | no change | no change | 0.72 | -0.73 |
| CDK10 | no change (active) | CA2 (caspase activation) | -1.02 | 6.36 |
| BNC1 | no change | no change | 0.42 | -0.7 |
| NCLN | no change | no change | -3.86 | 1.15 |
| C2CD4B | no change | no change | 0.97 | -0.17 |
| CEP85 | no change | no change | -0.48 | 1.35 |
| FGFBP2 | no change | no change | -0.74 | 0.9 |
| ARFGEF1 | no change | no change | 0.34 | -0.57 |
| SLC37A2 | no change | no change | -0.01 | 2.02 |
| PRPF31 | no change | no change | -1.64 | 1.27 |
| MTPAP | no change | no change | 1.36 | -0.05 |
| LTV1 | no change | no change | -2.17 | -1 |
| APOA5 | no change | no change | 0.7 | 0.11 |
| LY6S-AS1 | no change | no change | -3.72 | -0.83 |
| CER1 | no change | no change | -0.22 | -0.5 |
| EDA | no change | no change | 1.52 | 1.99 |
| SH3BGRL2 | no change | no change | 0.04 | -0.76 |
| SORBS3 | no change | no change | 0.21 | 0.38 |
| PPP3CB | no change | no change | 0.31 | 0.57 |
| PRMT6 | no change | no change | 0.74 | 1.26 |
| SH2D1A | no change | no change | 0.56 | 1.36 |
| KLC3 | no change | no change | 0.4 | 2.77 |
| HOMER3 | no change | no change | -0.11 | -0.32 |
| ZNF805 | no change | no change | 1.36 | 0.64 |
| ZC2HC1C | no change | no change | 1.33 | 1.28 |
| KLK4 | no change | no change | 0.6 | 0.66 |
| SIPA1 | no change | no change | 0.59 | -0.7 |
| GALR2 | no change | no change | 0.02 | 0.9 |
| ANXA8 | no change | no change | 1.75 | -0.32 |
| TRIM23 | no change | no change | -0.15 | -0.64 |
| ZNF683 | no change | no change | 0.45 | -0.04 |
| TMEM209 | no change | no change | 0.47 | -0.12 |
| RETN | no change | no change | 0.3 | -1.31 |
| FEN1 | no change | no change | -0.35 | -0.29 |
| KLHL3 | no change | no change | -1.72 | -0.12 |
| INSL3 | no change | no change | 0.56 | 0.24 |
| CRYGC | no change | no change | 1.29 | 0.08 |
| PSMA3 | no change | no change | -4.08 | 3.83 |
| RBM47 | no change | no change | -1.2 | 0.71 |
| SLCO1A2 | no change | no change | -0.78 | -0.64 |
| TMEM267 | no change | no change | -0.6 | -1.15 |
| STMN3 | no change | no change | -0.04 | 3.52 |
| NOCT | no change | no change | -1.49 | -1.6 |
| NOL10 | no change | no change | -1.77 | -0.3 |
| TRIM56 | no change | no change | -0.18 | 3.59 |
| CCL23 | no change | no change | 0.49 | -0.12 |
| EPB41L5 | no change | no change | 0.02 | 0.34 |
| HS6ST1 | no change | no change | -0.94 | 3.2 |
| CTTNBP2 | no change | no change | 1.38 | 0.06 |
| CRY1 | no change | no change | -0.1 | -0.93 |
| RPA4 | no change | no change | 1.04 | -0.82 |
| USH1G | no change | no change | -0.1 | 3.22 |
| CDC23 | no change | no change | -0.51 | 0.46 |
| RFX4 | no change | no change | 1.21 | 1.38 |

Part of the list above, reduced to “viability hit class”:
TRIM56	no change
CCL23	no change
EPB41L5	no change
HS6ST1	no change
CTTNBP2	no change
CRY1	no change
